Source: ChEMBL document CHEMBL3988442, “University of Dundee, Small-Polar-MMV Screening Library” (2021).

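Whole-cell assay for inhibitors of Mycobacterium tuberculosis growth, labelled Cornell in the record; the read-out is not stated. The concentration is filed as 10 mM, unlikely as a test dose, so the dose is not known. The record gives no direction; compounds strong in two other growth screens of this library score well above the rest, so higher reads as stronger inhibition. About 53,000 compounds were tested under these conditions; 1.7% (about 900) showed 50% or more at least once.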

Results are given as percent effect. How 0% and 100% were set is not recorded. Most values in the screen are low, and negative values occur. Compounds were drawn at random from those tested, without regard to their results.

Result for Cn1cc(C(=O)NCc2cn3c(n2)CN(CC2CCOC2)CC3)cn1.O=C(O)C(F)(F)F.O=C(O)C(F)(F)F (stereo unspecified) was 6.508%. For CCOc1ncccc1CNS(=O)(=O)c1ccc2c(c1)CCO2 the result was 17.56%. O=C(O)C(F)(F)F.[H][C@@]12C[C@H](C(=O)N3CCCCO3)CN(Cc3ccccc3C)[C@]1([H])CCO2 gave 19.61%. Result for Cc1nc2c(c(NC3CC3)n1)CCN(C(=O)CCO)CC2.O=C(O)C(F)(F)F was -2.511%. For COc1ccc(CN2CCOC[C@H](OCc3ccccc3)C2)cc1 the result was 12%. Result for Cc1ncccc1C(=O)Nc1cccc2c1C(=O)NC2 was 9.77%. For O[C@H]1CC[C@@H](Cc2cc(-c3ccccc3)on2)O[C@@H]1CNCC1CC1 the result was 28.86%.

Cc1[nH]nc(-c2ccc(F)cc2)c1CC(=O)NCC1CCOCC1 read 44.09%. With [H][C@]12CC[C@]([H])(CN(c3ncccn3)C1)N(C(=O)c1cc(C(C)C)oc1C)C2 the screen gave 27.59%. CC(C)(C)c1nc(CNc2cc3c(cc2Cl)NC(=O)CO3)no1 gave 21.34%. N[C@@H]1CC[C@@H]1NC(=O)c1ccccc1OC(F)(F)C(F)F gave 18.27%. CN(Cc1ccccc1)C(=O)CSc1ccc2c(c1)OCCO2 read -18.91%. Clc1cccc(-n2cnnn2)c1N1CCCC1 read 2.037%. For Cc1ccc(-c2noc(CNCC3CN(C)CCO3)n2)cc1F (stereo unspecified) the result was 8.301%.

Result for Fc1cnc(N2CCCC3(COCCN(c4nccs4)C3)C2)nc1.O=C(O)C(F)(F)F.O=C(O)C(F)(F)F (stereo unspecified) was -18.45%. c1cnc(-c2nc(C3CCOC3)no2)cn1 (stereo unspecified) gave -40.02%. CC(C)NC(=O)N1CCC[C@H]1C(=O)NCCCc1cnn(C)c1 read 11.24%. Result for Cc1nn(C)c(Cl)c1C1CCCN1C(=O)c1cnccn1 (stereo unspecified) was 9.769%. CCC(NC(=O)c1nn(C)cc1C(=O)O)c1ccccc1 (stereo unspecified) read 0.9821%. For CC(=O)NCC(=O)N1Cc2nccn2CC(COc2cccnc2)C1.O=C(O)C(F)(F)F (stereo unspecified) the result was 34.52%. With COCCn1cnnc1C(C)NC(=O)c1[nH]c2c(C)cc(C)cc2c1C (stereo unspecified) the screen gave -60.83%.

Result for COCCn1c2c(ccc1=O)CCN(C(=O)Cc1cccs1)CC2 was -2.987%. With CN(C)C(=O)c1cccnc1-c1ccc2c(c1)OCO2 the screen gave -31.5%. For COc1cc(N2CC[C@H](O)[C@@H]2Cc2ccccc2)ncn1 the result was -71.9%. Result for O=c1c2ccc(C(F)(F)F)cc2ncn1CCCN1CCCCC1CO (stereo unspecified) was -24.67%. Result for Cc1nn(C)c(C)c1CCC(=O)N1CCCC(n2cncn2)C1 (stereo unspecified) was 1.139%. Result for O=S(=O)(NCC1CCCN(Cc2ccccc2F)C1)C1CC1 (stereo unspecified) was 19.3%. CN(C)C(=O)CNC(=O)c1ccc2c(-c3nccs3)noc2c1 read -35.31%.

For O=C(Nc1ccc2ncccc2c1)C1CC(=O)N(Cc2ccccn2)C1 (stereo unspecified) the result was -14.24%. For CN(C)S(=O)(=O)c1ccc(CN2CCC(c3ccccc3)C2)o1 (stereo unspecified) the result was 2.827%. O=C(NCCN1C(=O)CCC1=O)c1nc2ccccc2c(=O)[nH]1 gave 3.441%. With CSc1ccc(C(O)CNS(=O)(=O)C2CC2)cc1 (stereo unspecified) the screen gave 29.86%. CN(CC1(O)CCN(c2ccnc3ccncc23)CC1)C(=O)CCN read 39.78%. For c1cncc(CC2CN(c3cccnc3)CCO2)c1 (stereo unspecified) the result was 3.946%.

4 of the entries, repeated:

* COc1cc(N2CC[C@H](O)[C@@H]2Cc2ccccc2)ncn1 | -71.9%
* Cc1ccc(-c2noc(CNCC3CN(C)CCO3)n2)cc1F (stereo unspecified) | 8.301%
* CC(=O)NCC(=O)N1Cc2nccn2CC(COc2cccnc2)C1.O=C(O)C(F)(F)F (stereo unspecified) | 34.52%
* Cc1nn(C)c(C)c1CCC(=O)N1CCCC(n2cncn2)C1 (stereo unspecified) | 1.139%